Where no unit stands, none is given here, and values compare only within one read-out.
Experiments:
[1] = Polymerization of styrene at 80° C. with peroxyketal as initiator; settings: 10% conversion; for Molecular weight Mn / Molecular weight Mw: polymer, GPC
[2] = Production of acrylic resin with peroxyketal as initiator; settings: GPC, 0.03 mol equivalent active oxygen, 125° C.; for Molecular weight Mn: polystyrene standard
[3] = Curing of unsaturated polyester resin at 80° C. (JIS K6901); settings: for Curing time / Gelation time: 80° C.; for Peak exothermic temperature: thermostat at 80° C.
[4] = Pot-life at 40° C. of unsaturated polyester resin containing the catalyst; settings: visual observation

Row | SMILES | Polymerization rate ([1]; initiator 0.01 mol/l) | Polymerization rate ([1]; initiator 2.0 g/l) | Molecular weight Mn ([1]; initiator 0.01 mol/l) | Molecular weight Mw ([1]; initiator 0.01 mol/l) | Molecular weight Mn ([1]; initiator 2.0 g/l) | Molecular weight Mw ([1]; initiator 2.0 g/l) | Molecular weight Mw/Mn [2] | Molecular weight Mn [2] | Curing time [3] [min] | Gelation time [3] [min] | Peak exothermic temperature [3] [°C] | Pot-life [4] [h]
1 | CC(C)(C)OOC1(OOC(C)(C)C)CCCCC1 [Comparative example 1, 1,1-bis(1,1-dimethylethylperoxy)cyclohexane, reference compound] | 9.12 ×10^5 (mol/l/s) | 7.99 ×10^5 (mol/l/s) | 17.9 ×10^-4 | 32.3 ×10^-4 | 20.4 ×10^-4 | 36.8 ×10^-4 | 4.1 | 5,400 | 32.9 | 28.5 | 182 | 69
2 | COC1(OOC(C)(C)C)CCCCC1 [Example 7, 1-methoxy-1-(1,1-dimethylethylperoxy)cyclohexane] | 9.56 ×10^5 (mol/l/s) | 9.51 ×10^5 (mol/l/s) | 15.9 ×10^-4 | 30.6 ×10^-4 | 16.0 ×10^-4 | 30.4 ×10^-4 | 2.8 | 4,100 | 16.6 | 13.3 | 191 | 22
3 | CCC(C)(C)OOC1(OC)CCCCC1 [Example 8, 1-methoxy-1-(1,1-dimethylpropylperoxy)cyclohexane] | 11.93 ×10^5 (mol/l/s) | 11.47 ×10^5 (mol/l/s) | 14.5 ×10^-4 | 26.8 ×10^-4 | 15.1 ×10^-4 | 27.0 ×10^-4 | – | – | 11.7 | 9.4 | 200 | 20
4 | CCCC(C)(C)OOC1(OC)CCCCC1 [Example 9, 1-methoxy-1-(1,1-dimethylbutylperoxy)cyclohexane] | 12.18 ×10^5 (mol/l/s) | 11.35 ×10^5 (mol/l/s) | 14.2 ×10^-4 | 24.7 ×10^-4 | 15.2 ×10^-4 | 26.3 ×10^-4 | 2.1 | 3,600 | 11.5 | 9.3 | 199 | 20
5 | COC1(OOC(C)(C)CC(C)(C)C)CCCCC1 [Example 10, 1-methoxy-1-(1,1,3,3-tetramethylbutylperoxy)cyclohexane] | 19.39 ×10^5 (mol/l/s) | 17.01 ×10^5 (mol/l/s) | 9.1 ×10^-4 | 14.8 ×10^-4 | 10.4 ×10^-4 | 17.1 ×10^-4 | – | – | 6.3 | 5.2 | 204 | 17
6 | COC1(OOC(C)(C)c2ccccc2)CCCCC1 [Example 11, 1-methoxy-1-(1-methyl-1-phenylethylperoxy)cyclohexane] | 12.61 ×10^5 (mol/l/s) | 10.97 ×10^5 (mol/l/s) | 13.3 ×10^-4 | 23.6 ×10^-4 | 15.3 ×10^-4 | 27.1 ×10^-4 | – | – | 15.4 | 12.8 | 198 | 24
7 | CCCC(C)(C)OOC1(OC)CC(C)CC(C)(C)C1 (stereo not drawn) [Example 12, 1-methoxy-1-(1,1-dimethylbutylperoxy)-3,3,5-trimethylcyclohexane] | 11.60 ×10^5 (mol/l/s) | 8.67 ×10^5 (mol/l/s) | 15.6 ×10^-4 | 26.0 ×10^-4 | 20.9 ×10^-4 | 34.8 ×10^-4 | – | – | 11.7 | 9.5 | 195 | 21
8 | CCC(C)(C)OOC1(OOC(C)(C)CC)CCCCC1 [compound 2, 1,1-bis(1,1-dimethylpropylperoxy)cyclohexane, reference compound] | 10.97 ×10^5 (mol/l/s) | 9.13 ×10^5 (mol/l/s) | 1.64 ×10^-4 | 27.9 ×10^-4 | 19.7 ×10^-4 | 33.5 ×10^-4 | – | – | 22.8 | 19.8 | 191 | 67
9 | CCCC(C)(C)OOC1(OOC(C)(C)CCC)CCCCC1 [compound 3, 1,1-bis(1,1-dimethylbutylperoxy)cyclohexane, reference compound] | 11.59 ×10^5 (mol/l/s) | 9.21 ×10^5 (mol/l/s) | 15.5 ×10^-4 | 26.1 ×10^-4 | 19.5 ×10^-4 | 32.8 ×10^-4 | 3.1 | 4,700 | 24.0 | 20.6 | 188 | 69
10 | CC(C)(C)CC(C)(C)OOC1(OOC(C)(C)CC(C)(C)C)CCCCC1 [compound 4, 1,1-bis(1,1,3,3-tetramethylbutylperoxy)cyclohexane, reference compound] | 18.43 ×10^5 (mol/l/s) | 13.50 ×10^5 (mol/l/s) | 10.2 ×10^-4 | 16.4 ×10^-4 | 13.9 ×10^-4 | 22.4 ×10^-4 | – | – | 13.3 | 11.2 | 201 | 41
11 | CC(C)(OOC1(OOC(C)(C)c2ccccc2)CCCCC1)c1ccccc1 [compound 5, 1,1-bis(1-methyl-1-phenylethylperoxy)cyclohexane, reference compound] | 12.03 ×10^5 (mol/l/s) | 8.68 ×10^5 (mol/l/s) | 14.9 ×10^-4 | 24.9 ×10^-4 | 20.7 ×10^-4 | 34.6 ×10^-4 | – | – | 28.9 | 25.3 | 185 | 63
12 | CCCC(C)(C)OOC1(OOC(C)(C)CCC)CC(C)CC(C)(C)C1 (stereo not drawn) [compound 6, 1,1-bis(1,1-dimethylbutylperoxy)-3,3,5-trimethylcyclohexane, reference compound] | 11.60 ×10^5 (mol/l/s) | 8.67 ×10^5 (mol/l/s) | 15.6 ×10^-4 | 26.0 ×10^-4 | 20.9 ×10^-4 | 34.8 ×10^-4 | – | – | 24.1 | 20.5 | 187 | 68
13 | CC(C)(C)OOC(=O)c1ccccc1 [compound 28, 1,1-dimethylethyl peroxybenzoate] | – | – | – | – | – | – | – | – | 43.0 | 30.8 | 139 | 15

Source: patent US5004780A, “Cyclic monoperoxyketal” (priority 1988, dated 1991)
